Results: patent US9421274B2, “Bio-orthogonal drug activation” (Koninklijke Philips N.V., priority 2011, dated 2016)

Assay: Activation of model prodrugs by tetrazines (release of model drug, HPLC-MS)
Conditions: for release of 3,5-dimethylaniline: 20 hr

O=C(NCc1ccccc1)OC1/C=C/CCCCC1 (stereo not drawn) [32 minor isomer, (E)-cyclooct-2-en-1-yl benzylcarbamate]
release of benzylamine (activator 3,6-bis(2-aminophenyl)-1,2,4,5-tetrazine (9), DMSO-d6/D2O, 20° C., 24 hr): release of benzylamine
release of benzylamine (activator 3,6-bis(2-pyridinyl)-1,2,4,5-tetrazine (2), acetonitrile/water, 20° C., 24 hr): release of benzylamine
release of benzylamine (activator 3,6-bis(4-hydroxyphenyl)-1,2,4,5-tetrazine (11), acetonitrile/water, 20° C., 5 hr): release of benzylamine
release of benzylamine (activator 3,6-diphenyl-1,2,4,5-tetrazine, general procedure): release of benzylamine
release of benzylamine (activator 6-H-3-(4-aminomethylphenyl)-1,2,4,5-tetrazine, general procedure): release of benzylamine
release of benzylamine (activator 6-methyl-3-(4-butanamido-2-pyridinyl)-1,2,4,5-tetrazine, general procedure): release of benzylamine
release of benzylamine (activator 6-phenyl-3-(3-aminophenyl)-1,2,4,5-tetrazine, general procedure): release of benzylamine
release of benzylamine (activator 6-phenyl-3-(4-aminophenyl)-1,2,4,5-tetrazine, general procedure): release of benzylamine

Cc1cc(C)cc(NC(=O)OC2/C=C/CCCCC2)c1 (stereo not drawn) [33 minor isomer, (E)-cyclooct-2-en-1-yl(3,5-dimethylphenyl)carbamate]
release of 3,5-dimethylaniline (activator 3,6-bis(2-aminophenyl)-1,2,4,5-tetrazine (9), acetonitrile/PBS, 20° C.): release of 3,5-dimethylaniline
release of 3,5-dimethylaniline (activator 3,6-bis(4-hydroxyphenyl)-1,2,4,5-tetrazine (11), acetonitrile/PBS, 20° C.): release of 3,5-dimethylaniline
release of 3,5-dimethylaniline (activator 3,6-diphenyl-1,2,4,5-tetrazine, acetonitrile/PBS, 20° C.): release of 3,5-dimethylaniline
release of 3,5-dimethylaniline (activator 3-(2-pyridyl)-6-methyl-1,2,4,5-tetrazine (7), PBS, 20° C.): release of 3,5-dimethylaniline
